Measurements reported in PubChem BioAssay AID493246 (Drosophila RNAi Screening Center, 2011).
Test: 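Genes fly cells need to grow and stay alive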 (primary screen). Cell system: Drosophila Kc and S2R+ cells. Reagent: long dsRNA against Drosophila genes. Measurement: 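Raw, unnormalised count of remaining cells in each well; per-plate z-scores of cell number underlie the calls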. Direction: Kc cell number and S2R+ cell number: higher = more cells remaining. Active means: 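Counted as a hit if cell number falls by a z-score of at least 3 within its plate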.
The deposit covers about 21,000 reagents; shown is an unselected part of those with a known target gene and a result. Over the whole deposit, 429 (2%) were called active. 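Values are raw and not normalised between plates; calls rest on per-plate z-scores that were not deposited.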 A plus sign joins genes that one reagent is predicted to hit. Not stated in the record: the amount of reagent, the time to read-out.

What did the screen give for rin [DRSC17045]?
Kc cell number, rep 1: 1.70e6; Kc cell number, rep 2: 1.76e6; S2R+ cell number, rep 1: 8.26e5; S2R+ cell number, rep 2: 9.16e5; activity call: inactive

For CCDC151 [DRSC10131], what was measured?
Kc cell number, rep 1: 1.38e6; Kc cell number, rep 2: 1.45e6; S2R+ cell number, rep 1: 1.41e6; S2R+ cell number, rep 2: 1.52e6; activity call: inactive

Which result is listed for CG5828 [DRSC02900]?
Kc cell number, rep 1: 1.79e6; Kc cell number, rep 2: 1.89e6; S2R+ cell number, rep 1: 1.31e6; S2R+ cell number, rep 2: 1.53e6; activity call: inactive

For CG14212 [DRSC19568], how do the results read?
Kc cell number, rep 1: 1.55e6; Kc cell number, rep 2: 1.53e6; S2R+ cell number, rep 1: 1.15e6; S2R+ cell number, rep 2: 1.31e6; activity call: inactive

What did the screen give for Cht6 [DRSC18001]?
Kc cell number, rep 1: 1.60e6; Kc cell number, rep 2: 1.57e6; S2R+ cell number, rep 1: 1.14e6; S2R+ cell number, rep 2: 1.23e6; activity call: inactive

For Cht6 [DRSC18002], what does the deposit list?
Kc cell number, rep 1: 1.55e6; Kc cell number, rep 2: 1.59e6; S2R+ cell number, rep 1: 8.44e5; S2R+ cell number, rep 2: 9.71e5; activity call: inactive

With Cht6 [DRSC18253], what was measured?
Kc cell number, rep 1: 1.58e6; Kc cell number, rep 2: 1.58e6; S2R+ cell number, rep 1: 1.06e6; S2R+ cell number, rep 2: 1.26e6; activity call: inactive

With RNF220 [DRSC15652], how do the results read?
Kc cell number, rep 1: 1.46e6; Kc cell number, rep 2: 1.60e6; S2R+ cell number, rep 1: 1.18e6; S2R+ cell number, rep 2: 1.23e6; activity call: inactive

Which result is listed for CG16717 [DRSC10221]?
Kc cell number, rep 1: 1.48e6; Kc cell number, rep 2: 1.67e6; S2R+ cell number, rep 1: 1.41e6; S2R+ cell number, rep 2: 1.57e6; activity call: inactive

For CycB3 [DRSC16618], what was measured?
Kc cell number, rep 1: 1.60e6; Kc cell number, rep 2: 1.61e6; S2R+ cell number, rep 1: 9.15e5; S2R+ cell number, rep 2: 1.02e6; activity call: inactive

For CG7856 [DRSC04896], what was measured?
Kc cell number, rep 1: 1.70e6; Kc cell number, rep 2: 1.71e6; S2R+ cell number, rep 1: 1.27e6; S2R+ cell number, rep 2: 1.42e6; activity call: inactive

How did the screen score CG11588 [DRSC09145]?
Kc cell number, rep 1: 1.34e6; Kc cell number, rep 2: 1.42e6; S2R+ cell number, rep 1: 1.03e6; S2R+ cell number, rep 2: 1.21e6; activity call: inactive

What is on record for CG11588 [DRSC09846]?
Kc cell number, rep 1: 1.50e6; Kc cell number, rep 2: 1.69e6; S2R+ cell number, rep 1: 1.36e6; S2R+ cell number, rep 2: 1.54e6; activity call: inactive

For CG32212 + hpRNA:CR33940 [DRSC09618], how do the results read?
Kc cell number, rep 1: 1.35e6; Kc cell number, rep 2: 1.45e6; S2R+ cell number, rep 1: 1.10e6; S2R+ cell number, rep 2: 1.34e6; activity call: inactive

What did the screen give for CG33792 [DRSC05355]?
Kc cell number, rep 1: 1.75e6; Kc cell number, rep 2: 1.81e6; S2R+ cell number, rep 1: 1.07e6; S2R+ cell number, rep 2: 1.33e6; activity call: inactive

Which result is listed for Ote [DRSC07498]?
Kc cell number, rep 1: 1.37e6; Kc cell number, rep 2: 1.44e6; S2R+ cell number, rep 1: 1.15e6; S2R+ cell number, rep 2: 1.21e6; activity call: inactive

For CG34462 [DRSC10768], what does the deposit list?
Kc cell number, rep 1: 1.48e6; Kc cell number, rep 2: 1.68e6; S2R+ cell number, rep 1: 1.05e6; S2R+ cell number, rep 2: 1.15e6; activity call: inactive

For Non2 [DRSC08272], how do the results read?
Kc cell number, rep 1: 1.35e6; Kc cell number, rep 2: 1.43e6; S2R+ cell number, rep 1: 1.01e6; S2R+ cell number, rep 2: 9.37e5; activity call: inactive

What is on record for Yp2 [DRSC18732]?
Kc cell number, rep 1: 5.56e5; S2R+ cell number, rep 1: 8.34e5; activity call: inactive

Which result is listed for nrv2 [DRSC00948]?
Kc cell number, rep 1: 1.54e6; Kc cell number, rep 2: 1.55e6; S2R+ cell number, rep 1: 1.06e6; S2R+ cell number, rep 2: 1.17e6; activity call: inactive

What did the screen give for nrv2 [DRSC03383]?
Kc cell number, rep 1: 1.27e6; Kc cell number, rep 2: 1.36e6; S2R+ cell number, rep 1: 7.86e5; S2R+ cell number, rep 2: 8.31e5; activity call: inactive

For ebo [DRSC18787], what does the deposit list?
Kc cell number, rep 1: 4.61e5; S2R+ cell number, rep 1: 7.59e5; activity call: inactive

With Or67a [DRSC11240], what was measured?
Kc cell number, rep 1: 1.36e6; Kc cell number, rep 2: 1.25e6; S2R+ cell number, rep 1: 1.30e6; S2R+ cell number, rep 2: 1.43e6; activity call: inactive

With RpS23 [DRSC07169], how do the results read?
Kc cell number, rep 1: 9.13e5; Kc cell number, rep 2: 1.05e6; S2R+ cell number, rep 1: 8.35e5; S2R+ cell number, rep 2: 8.44e5; activity call: inactive

For Alp2 [DRSC04354], what does the deposit list?
Kc cell number, rep 1: 1.56e6; Kc cell number, rep 2: 1.72e6; S2R+ cell number, rep 1: 1.27e6; S2R+ cell number, rep 2: 4.51e5; activity call: inactive

How did the screen score CG8501 [DRSC07198]?
Kc cell number, rep 1: 1.34e6; Kc cell number, rep 2: 1.44e6; S2R+ cell number, rep 1: 1.09e6; S2R+ cell number, rep 2: 1.16e6; activity call: inactive

What is on record for Ctf4 [DRSC06380]?
Kc cell number, rep 1: 1.38e6; Kc cell number, rep 2: 1.54e6; S2R+ cell number, rep 1: 9.74e5; S2R+ cell number, rep 2: 1.23e6; activity call: inactive
